## Primary screen of a compound library

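Viability assay of Plasmodium falciparum sporozoites; the read-out is not stated. The concentration is filed as 10 mM, unlikely as a test dose, so the dose is not known. Direction is inferred from retests: higher values go with lower viability. Strong results were mostly tested again. About 34,000 compounds were tested under these conditions; 0.84% (about 280) showed 50% or more at least once.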

Each number is a percent effect as filed.
The controls that fix the scale are not given in the record; negative values are as filed.
The compounds are a random part of those screened.
Two or more numbers in one place are separate tests of the same structure; such repeats can differ widely.

O=C(O)C(F)(F)F.[H][C@@]12C[C@H](C(=O)N3CCCO3)CN(Cc3ccoc3)[C@]1([H])CCO2 read 7.071%.
CSc1ccc(S(=O)(=O)N2CCCCC2CCNC(C)=O)cc1 (configuration not stated) read 3.461%.
Cc1nc(CN(C)C2CCN(Cc3nc4ccccc4n3C)C2)no1 (configuration not stated) read 16.23%.
O=C1CC2(CCCCC2)CC(=O)N1CC(O)COCc1ccc(Cl)cc1 (configuration not stated) read 0.2307%.
Cc1ccc(OCC(O)CN2CCC(Cn3cc(C)cn3)CC2)cc1 (configuration not stated) read 5.874%.
CCc1cc(C(=O)N2CCC(O)(Cn3ccc4ccncc43)CC2)no1 read 6.185%.
O=C(CCn1cncn1)NC1CCc2nccn2C1 (configuration not stated) read 4.385%.
CN1CCN(c2ccnc3c(F)cc(Br)cc23)CC1 read -13.95%.
N#CCCN(CC1CCCO1)C(=O)c1ccc2nonc2c1 (configuration not stated) read -8.534%.
Cc1cccc(CN2CCc3nnc(Cn4cccc4)n3CC2)n1.O=C(O)C(F)(F)F read 11.3%.
CC1(c2[nH]ncc2C(N)=O)CCN(c2ncccn2)CC1 read 3.043%.
CCOC(C)c1noc(CN2CCN(CC3CCCC3)CC2)n1 (configuration not stated) read -4.618%.
O=C(CCn1cccn1)N1CCSCC1 read 3.485%.
Cc1cnc(CN(C)C2CCN(CC(=O)Nc3c(C)n[nH]c3C)C2)o1 (configuration not stated) read 13.57%.
CNc1nc2c(s1)C(=O)CN(C(=O)[C@@H](N)Cc1cccc(OC)c1)C2 read -10.92%.
Cc1cncc(NCC(O)c2ccco2)n1 (configuration not stated) read -5.805%.
COCC(=O)N1CCC(c2cncc(-c3cccc(F)c3)n2)CC1 read 2.252%.
CNC(=O)CN1CCOCC12CCN(C(=O)c1ccc(C)cc1)CC2.O=C(O)C(F)(F)F read -12.49%.
O=C(Nc1cc(C2CCOCC2)[nH]n1)c1ccc(Cl)cn1 read 12.4%.
CCOc1ccc(C(=O)NS(=O)(=O)c2cncc(Br)c2)cc1OC read -10.47%.
COc1ccc(C(C)NCc2ccsc2)cc1Cn1cccn1 (configuration not stated) read -12.81%.
O=C(O)C(F)(F)F.O=C(O)C(F)(F)F.O=C(O)C(F)(F)F.c1ccc(CN2CCCC3(CCN(Cc4cccs4)C3)C2)nc1 (configuration not stated) read -5.776%.
c1cc(-c2cncc(C3CCNCC3)n2)n[nH]1 read -6.681%.
O=C(O)C(F)(F)F.[H][C@@]12CN(C(=O)C3(C#N)CC3)C[C@]1([H])C(=O)N(Cc1csc(C)n1)C2 read 9.933%.
CC(C)(C)c1nc(CN2CCCC2Cn2cncn2)no1 (configuration not stated) read -0.2602%.
Cc1nn(C)c(C)c1CCC(=O)Nc1nnc(C2CC2)s1 read 9.793%.
[H][C@]12CC[C@]([H])(CN(Cc3[nH]cnc3C)C1)N(C(=O)CCNS(C)(=O)=O)C2 read -8.735%.
O=C(Cc1cccs1)NCc1ccnc(C2CCCOC2)n1 (configuration not stated) read -12%.
Cc1ccc(-c2nc(CN3CCn4c(nnc4C4CC4)C3)cs2)o1 read 10.47%.
COCCN1CCN(Cc2cccc(C(=O)N(C)C)c2)CC1C (configuration not stated) read -5.392%.
COc1ccc(NC(=O)CN2CCS(=O)(=O)CC2)cn1 read -23.01% and -1.221% and -27.72%.
COc1cccc(CNC(=O)CC2CSc3ncc(C)c(=O)n32)c1 (configuration not stated) read 1.899%.
COCC(=O)N1CCCC1c1nc(O)cc(C(C)C)n1 (configuration not stated) read 0.8427%.
CCOCC(=O)N1CCc2nc(C)nc(NC(C)C)c2CC1 read 9.806%.
CCc1ccc(S(=O)(=O)Nc2cc(C(=O)O)ccc2F)s1 read -5.451%.
Cc1cccc(C(=O)N2CCCCC2c2ccc(CN(C)C)cc2)c1 (configuration not stated) read -7.828%.
O=C(c1cccc2ncccc12)N1CCC(Nc2cccnn2)CC1 read 6.434%.
O=C(NCc1cc[nH]n1)N1CCCCC(N2CCCC2)C1 (configuration not stated) read -4.319%.
CCn1c(C)nnc1CN(C)C1CCN(Cc2cnc(C)cn2)C1 (configuration not stated) read 1.615%.
[H][C@@]12CN(c3cc(OC)ncn3)C[C@@H](C(=O)NC3CC3)[C@]1([H])CCO2 read -3.087%.
CCc1nn(C)c(Cl)c1CN(CCOC)Cc1cnn(C)c1 read -2.336%.
O=C(NC1CCCc2nc(N3CCOCC3)ncc21)C1CCCC1 (configuration not stated) read -4.056%.
O=C(O)C(F)(F)F.[H][C@@]12C[C@H](C(=O)NC)[C@@]([H])(CN(Cc3cccc(C)c3)C1)O2 read 3.853%.
Cc1cnccc1-c1cnn(CCNC(=O)c2ccncc2)c1C1CC1.Cl read 16.05%.
CN1CCC(NCC2(O)CCCN(Cc3ccccc3F)C2=O)CC1 (configuration not stated) read 10.3%.
CCc1cc(NC(=O)C(c2cccc(F)c2)N2CCOCC2)[nH]n1 (configuration not stated) read -14.71%.
CS(=O)(=O)N1CCC2(CCN(C(=O)c3cccs3)CC2)CC1 read 3.207%.
Cc1nc(C)n(C2CCCN(C(=O)c3csc(C(C)C)n3)C2)n1 (configuration not stated) read 8.16%.
CC(C)c1cc(NC(=O)CN2CCCC2c2noc(C(C)C)n2)on1 (configuration not stated) read 9.662%.
CC1CCCN(CCNC(=O)c2scnc2Cl)C1 (configuration not stated) read 7.989%.

Some entries from above, unchanged:

Compound	Percent Effect
[H][C@@]12CN(c3cc(OC)ncn3)C[C@@H](C(=O)NC3CC3)[C@]1([H])CCO2	-3.087
Cc1cnc(CN(C)C2CCN(CC(=O)Nc3c(C)n[nH]c3C)C2)o1 (configuration not stated)	13.57
CS(=O)(=O)N1CCC2(CCN(C(=O)c3cccs3)CC2)CC1	3.207
CC1(c2[nH]ncc2C(N)=O)CCN(c2ncccn2)CC1	3.043

The values are deposited in ChEMBL (CHEMBL3988442, “University of Dundee, Small-Polar-MMV Screening Library” (2021)).